The exact form of at least one protein or probe is not confirmed. At least one result comes from cells or an extract, where the contact may be indirect. Protein sequences can lack the tags named with them.
Biological target: T1, ELK1 (UniProt P19419)
T1 sequence (looked up, limits assumed): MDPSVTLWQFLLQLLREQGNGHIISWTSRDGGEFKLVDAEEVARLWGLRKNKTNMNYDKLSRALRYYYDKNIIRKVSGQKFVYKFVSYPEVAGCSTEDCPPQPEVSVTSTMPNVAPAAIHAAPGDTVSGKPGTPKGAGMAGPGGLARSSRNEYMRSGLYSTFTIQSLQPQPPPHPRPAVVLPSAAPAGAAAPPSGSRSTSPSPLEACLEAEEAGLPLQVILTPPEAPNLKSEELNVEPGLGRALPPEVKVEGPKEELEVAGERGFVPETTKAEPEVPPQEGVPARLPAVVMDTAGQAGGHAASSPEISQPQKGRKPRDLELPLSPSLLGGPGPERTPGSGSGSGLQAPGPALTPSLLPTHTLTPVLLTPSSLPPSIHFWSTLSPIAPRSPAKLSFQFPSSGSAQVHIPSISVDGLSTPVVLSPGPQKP
Assay: EMSA supershift
Details: anti-ELK1 antibody, nuclear extract, complex more abundant with CR than WT cell extract; LightShift Chemiluminescent EMSA Kit (Thermo Fisher) with nuclear extracts; pH and temperature not stated; protein in an extract; label: 5' biotin

GACGGACGCACTTCCGGCGGATGTGGGGGCCAGCCCTCGGAAACGGAAGTGAGCGGC (double strand) [Biotin-POMP-P wt-F probe]
binding result: binds

From publication PMC8572801
